PubChem BioAssay AID743121 – NCATS | 2013

Purpose: 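Knock-downs that sensitise breast cancer cells to camptothecin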 (primary screen)
Cell system: MDA-MB-231 cells, a human breast cancer line
Knock-down reagent: single siRNA against human genes, 20 nM siRNA (0.8 pmol per well)
Timing: 120 h (drug added 48 h after transfection, read 72 h later)
Treatment: camptothecin 20 nM (about EC30) for 72 h; vehicle 0.1% DMSO in parallel plates
Read-out: 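Cell viability by ATP luminescence (CellTiter-Glo) as % of non-targeting siRNA wells, and the log2 ratio of viability without drug over viability with camptothecin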
Reading the numbers: log2 vehicle/camptothecin viability: higher = stronger sensitisation to camptothecin
Call rule: 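Each gene scored by redundant siRNA activity (RSA) over its individual siRNA ratios; a gene is called active at p < 0.001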
Shown is one part, drawn at random, of about 26,000 reagents tested. 167 of them (0.63%) count as active. 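Calls are per gene from RSA p-values that are not deposited; an individual active-marked siRNA can sensitise only weakly.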 The numbers tell different reagents against one gene apart. Further read-outs or replicates are left out here.

BCL2A1 #1 scored log2 vehicle/camptothecin viability -0.118; inactive.
For BCL2A1 #2, the values are log2 vehicle/camptothecin viability -0.215; inactive.
BCL2A1 #3 gave log2 vehicle/camptothecin viability -0.0152; inactive.
Depletion of BCL2A1 #4 resulted in: log2 vehicle/camptothecin viability 0.346; inactive.
Against NEU1 #1 the deposit lists log2 vehicle/camptothecin viability -0.12; inactive.
For NEU1 #2, the entry reads log2 vehicle/camptothecin viability 1.34; inactive.
Silencing of NEU1 #3 came out at: log2 vehicle/camptothecin viability 0.148; inactive.
Knock-down of NEU1 #4 gave: log2 vehicle/camptothecin viability -0.287; inactive.

Already shown: entries from further up.
BCL2A1 #1 — log2 vehicle/camptothecin viability: -0.118; Call: inactive
BCL2A1 #2 — log2 vehicle/camptothecin viability: -0.215; Call: inactive
BCL2A1 #3 — log2 vehicle/camptothecin viability: -0.0152; Call: inactive
BCL2A1 #4 — log2 vehicle/camptothecin viability: 0.346; Call: inactive

More entries follow.
With knock-down of MED1 #1 the results were log2 vehicle/camptothecin viability -0.365; inactive.
For MED1 #2, the values are log2 vehicle/camptothecin viability -0.242; inactive.
Against MED1 #3, the entry reads log2 vehicle/camptothecin viability -0.117; inactive.
For MED1 #4, the values are log2 vehicle/camptothecin viability -0.439; inactive.
With knock-down of DVL2 #1, the screen gave log2 vehicle/camptothecin viability -0.722; inactive.
For DVL2 #2 the deposit lists log2 vehicle/camptothecin viability -0.274; inactive.
DVL2 #3 showed log2 vehicle/camptothecin viability -0.254; inactive.
After knock-down of DVL2 #4 the results were log2 vehicle/camptothecin viability -0.365; inactive.
Against CLEC4D #1 the deposit lists log2 vehicle/camptothecin viability -0.315; inactive.
For CLEC4D #2 the deposit lists log2 vehicle/camptothecin viability 0.0086; inactive.
Knock-down of CLEC4D #3 gave: log2 vehicle/camptothecin viability -0.712; inactive.
CLEC4D #4 showed log2 vehicle/camptothecin viability -1.23; inactive.
Silencing of POLQ #1 resulted in: log2 vehicle/camptothecin viability 0.061; inactive.
POLQ #2 showed log2 vehicle/camptothecin viability -0.357; inactive.
POLQ #3 showed log2 vehicle/camptothecin viability -0.235; inactive.
Silencing of POLQ #4 resulted in: log2 vehicle/camptothecin viability -0.165; inactive.
